Laboratory results reported in doi:10.1101/519199.
These are yes or no findings as the source states them, for the method shown. A result given as binding can be weak or reduced; the word gives no strength. For some of these results: Sequences can lack the tags named with a protein. For some of these results: In cells and extracts the contact can be indirect.

Columns and labels:
[1] = target: OsANN4 (pGBKT7-OsANN4) (rice (Oryza sativa subsp. japonica cv. Nipponbare)); experiment: two-hybrid
[2] = target: OsANN4-GST (rice (Oryza sativa subsp. japonica cv. Nipponbare)); experiment: pull-down
[3] = target: OsANN4(S13A)-Cluc (rice (Oryza sativa subsp. japonica cv. Nipponbare)); experiment: split reporter
[4] = target: OsANN4-Cluc (rice (Oryza sativa subsp. japonica cv. Nipponbare)); experiment: split reporter

B1: OsCDPK24 (pGADT7-OsCDPK24) (enzyme, UniProt Q53P85 1-513)
chain: MQPDPSGSGGDGNANAKAKLAPPPVTAAGGRPVSVLPHKTANVRDHYRIGKKLGQGQFGTTYLCVDKASGGEFACKSIPKRKLLCREDYEDVWREIQIMHHLSEHPNVVRIRGAYEDALFVHIVMELCAGGELFDRIVAKGHYTERAAAQLIRTIVAVVEGCHSLGVMHRDLKPENFLFASAAEDAPLKATDFGLSMFYKPGDKFSDVVGSPYYVAPEVLQKCYGPESDVWSAGVILYILLCGVPPFWAETEAGIFRQILRGKLDFESEPWPSISDSAKDLVRNMLCRDPTKRLTAHEVLCHPWIVDDAVAPDKPIDSAVLSRLKHFSAMNKLKKMALRVIAESLSEEEIGGLKELFKMIDTDDSGTITFDELKEGLKRVGSELTEHEIQALMEAADIDNSGTIDYGEFIAATLHMNKLEREENLVSAFSFFDKDGSGFITIDELSQACREFGLDDLHLEDMIKDVDQNNDGQIDYSEFTAMMRKGNAGGAGRRTMRNSLQLNLGEILNPSNS
With B1 the binding [1] was “binds”.

B2: OsCDPK24-His (enzyme, UniProt Q53P85 1-513)
chain: MQPDPSGSGGDGNANAKAKLAPPPVTAAGGRPVSVLPHKTANVRDHYRIGKKLGQGQFGTTYLCVDKASGGEFACKSIPKRKLLCREDYEDVWREIQIMHHLSEHPNVVRIRGAYEDALFVHIVMELCAGGELFDRIVAKGHYTERAAAQLIRTIVAVVEGCHSLGVMHRDLKPENFLFASAAEDAPLKATDFGLSMFYKPGDKFSDVVGSPYYVAPEVLQKCYGPESDVWSAGVILYILLCGVPPFWAETEAGIFRQILRGKLDFESEPWPSISDSAKDLVRNMLCRDPTKRLTAHEVLCHPWIVDDAVAPDKPIDSAVLSRLKHFSAMNKLKKMALRVIAESLSEEEIGGLKELFKMIDTDDSGTITFDELKEGLKRVGSELTEHEIQALMEAADIDNSGTIDYGEFIAATLHMNKLEREENLVSAFSFFDKDGSGFITIDELSQACREFGLDDLHLEDMIKDVDQNNDGQIDYSEFTAMMRKGNAGGAGRRTMRNSLQLNLGEILNPSNS
With B2 the binding [2] was “binds”.

B3: OsCDPK24-Nluc (enzyme, UniProt Q53P85 1-513)
chain: MQPDPSGSGGDGNANAKAKLAPPPVTAAGGRPVSVLPHKTANVRDHYRIGKKLGQGQFGTTYLCVDKASGGEFACKSIPKRKLLCREDYEDVWREIQIMHHLSEHPNVVRIRGAYEDALFVHIVMELCAGGELFDRIVAKGHYTERAAAQLIRTIVAVVEGCHSLGVMHRDLKPENFLFASAAEDAPLKATDFGLSMFYKPGDKFSDVVGSPYYVAPEVLQKCYGPESDVWSAGVILYILLCGVPPFWAETEAGIFRQILRGKLDFESEPWPSISDSAKDLVRNMLCRDPTKRLTAHEVLCHPWIVDDAVAPDKPIDSAVLSRLKHFSAMNKLKKMALRVIAESLSEEEIGGLKELFKMIDTDDSGTITFDELKEGLKRVGSELTEHEIQALMEAADIDNSGTIDYGEFIAATLHMNKLEREENLVSAFSFFDKDGSGFITIDELSQACREFGLDDLHLEDMIKDVDQNNDGQIDYSEFTAMMRKGNAGGAGRRTMRNSLQLNLGEILNPSNS
In the case of B3, the binding [3] is reported as “binds” and the binding [4] is reported as “binds”.
